{"source": "the supplement of paper PMC8104966", "note": "Some of the results follow. Single values are uncertain here, since repeats match poorly.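 Fusion between ACE2-bearing and full-length-spike-bearing U2OS cells was measured by imaging as the percentage of nuclei with both cell types' fluorescent markers. An inhibitory hit is a non-toxic compound whose fusion z-score is below -3, more than three standard deviations beneath the plate's DMSO wells.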", "data": [{"tested_on": "U2OS ACE2 x SARS-CoV-2 spike co-culture", "assay": "cell-cell fusion (fraction fused) z-score vs plate DMSO control; higher = more fusion", "settings": "30 µM; 5 h; toxicity class: non-toxic, passed QC", "values": [{"smiles": "OC[C@H]1O[C@@H](n2cnc3c(NC4CCCCC4)ncnc32)[C@H](O)[C@@H]1O", "note": "[N6-Cyclohexyladenosine]", "cell-cell fusion (z-score)": "inactive: -0.408"}, {"smiles": "CCOC(=O)COc1ccc2c(=O)cc(-c3ccccc3)oc2c1", "cell-cell fusion (z-score)": "inactive: 1.24"}, {"smiles": "O=C(O)c1ccccc1", "cell-cell fusion (z-score)": "inactive: -0.542"}, {"smiles": "CC(=O)Nc1ncc([N+](=O)[O-])s1", "cell-cell fusion (z-score)": "inactive: 1.15"}, {"smiles": "OC[C@@H]1CCCN2CCCC[C@H]12", "cell-cell fusion (z-score)": "inactive: 2.99"}, {"smiles": "Nc1ncnc2nc[nH]c12", "note": "[Adenine]", "cell-cell fusion (z-score)": "inactive: 3.09"}, {"smiles": "NS(=O)Oc1cc(C(=O)O)c(NCc2ccco2)cc1Cl", "note": "(configuration not stated) [Furosemide]", "cell-cell fusion (z-score)": "inactive: 2.53"}, {"smiles": "CC(Cc1ccc(O)c(O)c1)C(C)Cc1ccc(O)c(O)c1", "note": "(configuration not stated) [Nordihydroguaiaretic acid]", "cell-cell fusion (z-score)": "active: -3.01"}, {"smiles": "C=CCc1ccccc1OCC(O)CNC(C)C.Cl", "note": "(configuration not stated)", "cell-cell fusion (z-score)": "inactive: 1.8"}, {"smiles": "C=CCc1ccccc1OCC(O)CNC(C)C.Cl", "note": "(configuration not stated) [Alprenolol hydrochloride]", "cell-cell fusion (z-score)": "inactive: 1.2"}, {"smiles": "CN(C)CCOC(c1ccc(Cl)cc1)c1ccccn1.O=C(O)/C=C\\C(=O)O", "note": "(configuration not stated)", "cell-cell fusion (z-score)": "inactive: 0.205"}, {"smiles": "C=C1C/C=C(\\C)CC[C@@H]2[C@@H]1CC2(C)C", "cell-cell fusion (z-score)": "inactive: 2.92"}, {"smiles": "Cc1[nH]cnc1CN1CCc2c(c3ccccc3n2C)C1=O.Cl", "note": "[Alosetron hydrochloride]", "cell-cell fusion (z-score)": "inactive: 1.92"}, {"smiles": "C#Cc1cccc(Nc2ncnc3cc(OC)c(OCCCCCCC(=O)NO)cc23)c1", "cell-cell fusion (z-score)": "inactive: 1.88"}, {"smiles": "CC1(C)O[C@@H]2C[C@H]3[C@@H]4CCC5=CC(=O)C=C[C@]5(C)[C@H]4[C@@H](O)C[C@]3(C)[C@]2(C(=O)CO)O1", "note": "[Desonide]", "cell-cell fusion (z-score)": "inactive: 2.96"}, {"smiles": "NCc1cccnc1", "cell-cell fusion (z-score)": "inactive: 2.78"}, {"smiles": "Oc1cc(O)cc(/C=C/c2ccc(O)c(O)c2)c1", "note": "[Piceatannol]", "cell-cell fusion (z-score)": "inactive: 0.312"}, {"smiles": "COc1cc(Nc2nc3ccccc3nc2NS(=O)(=O)c2ccc(NC(=O)c3ccc(C)c(OC)c3)cc2)cc(OC)c1", "cell-cell fusion (z-score)": "inactive: 2.03"}, {"smiles": "C[C@H]1[C@H](C)CC[C@]2(C(=O)O)CC[C@]3(C)C(=CCC4[C@@]5(C)C[C@@H](O)[C@H](O)[C@@](C)(CO)C5CC[C@]43C)[C@H]12", "note": "(some centres not stated)", "cell-cell fusion (z-score)": "inactive: 1.93"}, {"smiles": "O=C(O)CCc1ccc(NCc2cccc(Oc3ccccc3)c2)cc1", "cell-cell fusion (z-score)": "inactive: 0.884"}, {"smiles": "CC1(C)O[C@@H]2CC3C4C[C@H](F)C5=CC(=O)C=CC5(C)C4C(O)CC3(C)[C@]2(C(=O)CO)O1", "note": "(some centres not stated)", "cell-cell fusion (z-score)": "inactive: 1.47"}, {"smiles": "CC(CNCCc1ccc(O)c(O)c1)Cc1cccc(O)c1.Cl", "note": "(configuration not stated)", "cell-cell fusion (z-score)": "inactive: 1.11"}]}]}
